Measurements published in PMC4682182.
For at least one entry, the source does not settle the construct or the ends of the probe. For some assays here: The comparison behind a weaker result is the experiment's own reference, which may not be listed here. For some assays here: At least one verdict was read from the data and is not stated in words by the source.

Chains of the proteins cited; added tags and fusions are not shown. Lines headed by an entry give the natural chain unless they say otherwise; changes in a name come on top.
UniProt P09651: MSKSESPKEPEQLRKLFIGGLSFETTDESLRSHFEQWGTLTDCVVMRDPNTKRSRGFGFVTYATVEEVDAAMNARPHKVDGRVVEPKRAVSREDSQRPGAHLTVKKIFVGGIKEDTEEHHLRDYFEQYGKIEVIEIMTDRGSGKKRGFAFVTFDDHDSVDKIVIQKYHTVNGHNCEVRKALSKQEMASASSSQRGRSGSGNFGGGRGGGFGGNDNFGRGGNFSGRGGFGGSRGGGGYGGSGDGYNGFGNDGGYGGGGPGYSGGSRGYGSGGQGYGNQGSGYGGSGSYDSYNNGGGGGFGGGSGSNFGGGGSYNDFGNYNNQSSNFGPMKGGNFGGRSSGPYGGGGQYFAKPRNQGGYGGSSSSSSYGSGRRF

Legend:
[1] = target: hnRNP A1 (UniProt P09651); experiment: FRET; settings: FRET: 50 mM Na cacodylate pH 5.5 (hras-2Y pH 6.5), 50 mM KCl, recombinant protein, label: 5' ATTO-488, 3' TAMRA, folded or branched DNA
[2] = target: hnRNP A1 (UniProt P09651); experiment: EMSA; settings: EMSA: 50 mM Tris-acetate pH 5.5, 50 mM KCl, 1 mM DTT, 8% glycerol, 5 mM NaF, 1 mM Na3VO4, 2.5 ng/ul salmon sperm DNA, 20 C, competition at 37 C with 1 mM EDTA, recombinant protein

**Q.** Does “CGCCGCCCGTGCCCTGCGCCCGCAACCCGAGC [A-hras-1Y-T]” bind ([1]; pH 5.5, energy transfer 0.77 to 0.18 at r = 7 (unfolding))?
**A.** binds

**Q.** Does CGCGCCCCCGCCCCCGCCCCGCCCC [A-hras-2Y-T] bind ([1]; pH 6.5, melting profile abrogated)?
**A.** binds

**Q.** Does “CGCTCGTGCTCTGCGCTCGCAACTCGA [hras-1Y(m)]” bind ([2]; pH 5.5, single-stranded DNA)?
**A.** binds more weakly

**Q.** What does the source list for “TTTTTTTCGCCCGTGCCCGTCGCCCGCAACCCGATTTTTTT [hras-1Y-dy781]”?
**A.** binding result ([2]; pH 5.5, 0 C, only 1:1 complex, label: 5' Dy-781, folded or branched DNA): binds; binding result ([2]; pH 5.5, 37 C, 1:1 at 50-fold, 1:2 at 100-fold protein, label: 5' Dy-781, folded or branched DNA): binds
